These are yes or no findings as the source states them, for the method shown. Binding seen in cells or lysates may run through a third protein. These calls come from enrichment with a bait or labelling near it, and not all partners need be listed.
Biological target: T1, neuroserpin (human retina) (human (endogenous in retina)) (UniProt Q99574)
T1 sequence: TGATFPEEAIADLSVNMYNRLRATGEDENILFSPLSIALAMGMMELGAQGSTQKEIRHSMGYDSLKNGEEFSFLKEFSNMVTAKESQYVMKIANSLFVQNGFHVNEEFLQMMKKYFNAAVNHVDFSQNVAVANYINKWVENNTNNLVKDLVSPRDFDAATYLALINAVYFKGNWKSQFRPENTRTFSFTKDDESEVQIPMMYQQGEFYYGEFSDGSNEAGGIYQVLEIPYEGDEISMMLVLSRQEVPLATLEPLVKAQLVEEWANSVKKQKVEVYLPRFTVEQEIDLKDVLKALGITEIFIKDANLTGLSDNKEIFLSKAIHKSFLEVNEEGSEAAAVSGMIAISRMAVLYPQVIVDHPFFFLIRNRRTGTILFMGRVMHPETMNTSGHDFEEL
Test: affinity purification with mass spectrometry; neuroserpin immunoprecipitated from human retinal lysates (control, glaucoma); eluted with Gly-HCl; SDS-PAGE lane excised, trypsin digest, nanoLC-MS/MS

**Q.** For plasmin (human retina) (enzyme), which binding is on record?
**A.** The binding was “binds”.

From publication PMC5566433
